Test results: publication PMC4140855, “Production of an Attenuated Phenol-Soluble Modulin Variant Unique to the MRSA Clonal Complex 30 Increases Severity of Bloodstream Infection” (PLoS Pathogens, 2014)

Assay: PSM production in culture filtrates of CC30 strains by HPLC/MS

Question: What does the source list for `CSCC[C@H](NC=O)C(=O)N[C@@H](CCC(=O)O)C(=O)N[C@@H](Cc1ccccc1)C(=O)N[C@H](C(=O)N[C@@H](C)C(=O)N[C@@H](CCCCN)C(=O)N[C@@H](CC(C)C)C(=O)N[C@@H](Cc1ccccc1)C(=O)N[C@@H](CCCCN)C(=O)N[C@@H](Cc1ccccc1)C(=O)N[C@@H](Cc1ccccc1)C(=O)N[C@@H](CCCCN)C(=O)N[C@@H](CC(=O)O)C(=O)N[C@@H](CC(C)C)C(=O)N[C@@H](CC(C)C)C(=O)NCC(=O)N[C@@H](CCCCN)C(=O)N[C@@H](Cc1ccccc1)C(=O)N[C@@H](CC(C)C)C(=O)NCC(=O)N[C@@H](CC(N)=O)C(=O)N[C@@H](CC(N)=O)C(=O)O)C(C)C` [PSMα3]?
Answer: Average PSMα3 production, contemporary CC30 strains (contemporary, difference to historic not significant): 0.99×10^7 intensity units; Average PSMα3 production, historic CC30 strains (historic): 1.16×10^8 intensity units
